Measured values taken from PubChem BioAssay AID504647 (National Center for Advancing Translational Sciences (NCATS), 2011).
The other results are listed elsewhere or left out. Further columns of the screen follow, without active or inactive calls.

Test: Assay for Inhibitors of Influenza NS1 Protein Function: Influenza virus replication assay in MDCK cells infected with virus A/PR/8/34
Conditions: MDCK infected influenza A/PR/8/34, virus titer TCID50; measured here: MDCK cell viability; at 5 µM; stronger effect = higher value
Text: NIH Chemical Genomics Center [NCGC]
NIH Molecular Libraries Probe Centers Network [MLPCN]
Assay Submitter (PI): Daniel Engel
Influenza is a world-wide public health problem and emerging forms of the virus have the potential to cause a pandemic of equal or greater magnitude to the outbreaks recorded in 1918, 1957 or 1968. Vaccine development is proceeding and there also exist two classes of anti-influenza compounds. However these therapeutic modalities are neither fully effective nor widely enough available to fulfill global needs. In addition their potential usefulness against newly emergent strains is not known. Efforts are needed to develop novel agents against influenza virus, including broad-spectrum agents. Identification of small molecules that inhibit NS1 function either directly or by interfering with specific cellular pathways may be a key to increasing our defense against the virus.
We have miniaturized and optimized a cell based assay in which NS1 from influenza A is expressed in the budding yeast S. cerevisiae. NS1 is a multi-functional protein that counters the host innate immune response and facilitates viral versus cellular gene expression. Expression of NS1 causes a pronounced slow growth phenotype in yeast due to its intrinsic molecular activities. Small molecules that suppress the slow growth phenotype can be identified by a straightforward growth recovery assay using optical density (OD) as the measurement. The same yeast strain not expressing NS1 was used as positive control in the yeast growth recovery assay. The present experiment attempted to confirm the activity of compounds observed in the primary screen.
This assay confirms the activity of compounds from the primary screen by measuring their affect on viral replication.
Protocol details are given in Basu et al. J. Vir. 83(4):1881-1891 2009. […] All media and sera were from Invitrogen. […] Confluent cell monolayers were infected at a multiplicity of infection (MOI) of 0.1 for 48 h in the presence or absence of 5uM compound. Compounds were added at the beginning of infection and were present throughout the infection. After 48 h virus titers were determined by standard TCID50 analysis.
`Cc1cc(OCC(=O)NC(Cc2ccc(Cl)cc2)C(=O)O)c2c(C)c(C)c(=O)oc2c1` (centres undefined) gave a viability of 100%.
For `COc1ccccc1-n1c(SCC(=O)NC(C)(C)C)nc(O)cc1=O`, the viability was 94.8%.
For `CCOC(=O)C1CCN(C(=O)CS(=O)Cc2nc(-c3ccc(C)cc3)oc2C)CC1` (centres undefined), the viability was 103%.
Work on `CC(C)CC(C(=O)Nc1oc(-c2ccco2)c(-c2ccco2)c1C#N)N1C(=O)c2ccccc2C1=O` (centres undefined) yielded a viability of 103%.
